# Assay results as given in patent US9517222B2, “Method for the treatment of senile dementia of the Alzheimer's type” (Phenomenome Discoveries Inc., priority 2007, dated 2016).
# A unit is not stated for every read-out.
# Assays:
# [1] = Serum ethanolamine phospholipid ratios to PtdEt 16:0/18:0 (M01) in human cohorts
# [2] = Serum ethanolamine phospholipid levels in human cohorts (dementia severity, post-mortem pathology, age) by flow-injection MS/MS
# [3] = serum, females, post mortem SDAT
# [4] = serum, females, post mortem control
smiles,measurement,setting,value
"CCCCCCCCCCCCCCCCCC(=O)OC[C@H](COP(=O)(O)OCCN)OC(=O)CCCCCCCCCCCCCCCCC [Metabolite M03, PtdEt 18:0/18:0]",Ratio of ethanolamine phospholipid ratios to M01 between cohorts,"[1]; AD, All to CN, Male",0.742
same,Ratio of ethanolamine phospholipid ratios to M01 between cohorts,"[1]; ADAS 5-19 to CN, Male",0.812
same,Ratio of ethanolamine phospholipid ratios to M01 between cohorts,"[1]; ADAS 20-39 to CN, Male",0.724
same,Ratio of ethanolamine phospholipid ratios to M01 between cohorts,"[1]; ADAS 40-70 to CN, Male",0.643
same,"Average serum ethanolamine phospholipid ratio to M01, Mean","[1]; Cognitive Normal, Male, serum",0.960
same,"Average serum ethanolamine phospholipid ratio to M01, Mean","[1]; SDAT, ADAS 5-19, Male, serum",0.779
same,"Average serum ethanolamine phospholipid ratio to M01, Mean","[1]; SDAT, ADAS 20-39, Male, serum",0.694
same,"Average serum ethanolamine phospholipid ratio to M01, Mean","[1]; SDAT, ADAS 40-70, Male, serum",0.617
same,"Average serum ethanolamine phospholipid ratio to M01, Mean","[1]; SDAT_all, Male, serum",0.712
same,"Ethanolamine Phospholipid Ratio to M01, Mean, Age Ctl, 30-39, Female","[1]; human serum, females aged 30-39",0.931
same,"Ethanolamine Phospholipid Ratio to M01, Mean, Age Ctl, 40-49, Female","[1]; human serum, females aged 40-49",0.911
same,"Ethanolamine Phospholipid Ratio to M01, Mean, Age Ctl, 50-59, Female","[1]; human serum, females aged 50-59",0.926
same,"Ratio of Ethanolamine Phospholipid Ratio to M01, 50-59 vs. 40-49, Female","[1]; human serum, females aged 50-59 vs. females aged 40-49",1.017
same,"Ethanolamine Phospholipid Ratio to M01, Mean, Age Ctl, 60-69, Female","[1]; human serum, females aged 60-69",0.750
same,"Ratio of Ethanolamine Phospholipid Ratio to M01, 60-69 vs. 40-49, Female","[1]; human serum, females aged 60-69 vs. females aged 40-49",0.823
same,"Ethanolamine Phospholipid Ratio to M01, Mean, Age Ctl, 70+_Female","[1]; human serum, females aged 70+",0.838
same,"Ratio of Ethanolamine Phospholipid Ratio to M01, 70+ vs. 40-49, Female","[1]; human serum, females aged 70+ vs. females aged 40-49",0.920
same,"Ratio of Ethanolamine Phospholipid Ratio to M01, 50-59 vs. 40-49, Male","[1]; human serum, males aged 50-59 vs. males aged 40-49",1.149
same,"Ratio of Ethanolamine Phospholipid Ratio to M01, 60-69 vs. 40-49, Male","[1]; human serum, males aged 60-69 vs. males aged 40-49",1.054
same,"Ratio of Ethanolamine Phospholipid Ratio to M01, 70+ vs. 40-49, Male","[1]; human serum, males aged 70+ vs. males aged 40-49",1.128
same,"Ratio of ethanolamine phospholipid ratio to M01, ADAS 5-19 to CN, Female","[1]; serum, females, ADAS 5-19 vs cognitive normal",0.871
same,"Ratio of ethanolamine phospholipid ratio to M01, ADAS 20-39 to 5-19, Female","[1]; serum, females, ADAS 20-39 vs ADAS 5-19",0.949
same,"Ratio of ethanolamine phospholipid ratio to M01, ADAS 20-39 to CN, Female","[1]; serum, females, ADAS 20-39 vs cognitive normal",0.826
same,"Ratio of ethanolamine phospholipid ratio to M01, ADAS 40-70 to 5-19, Female","[1]; serum, females, ADAS 40-70 vs ADAS 5-19",0.841
same,"Ratio of ethanolamine phospholipid ratio to M01, ADAS 40-70 to 20-39, Female","[1]; serum, females, ADAS 40-70 vs ADAS 20-39",0.887
same,"Ratio of ethanolamine phospholipid ratio to M01, ADAS 40-70 to CN, Female","[1]; serum, females, ADAS 40-70 vs cognitive normal",0.732
same,"Ethanolamine phospholipid ratio to M01, Mean, SDAT, ADAS 5-19, Female","[1]; serum, females, SDAT ADAS 5-19",0.742
same,"Ethanolamine phospholipid ratio to M01, Mean, SDAT, ADAS 20-39, Female","[1]; serum, females, SDAT ADAS 20-39",0.704
same,"Ethanolamine phospholipid ratio to M01, Mean, SDAT, ADAS 40-70, Female","[1]; serum, females, SDAT ADAS 40-70",0.624
same,"Ratio of ethanolamine phospholipid ratio to M01, AD, All to CN, Female","[1]; serum, females, all AD vs cognitive normal",0.806
same,"Ethanolamine phospholipid ratio to M01, Mean, SDAT_all Female","[1]; serum, females, all SDAT",0.687
same,"Ratio of ethanolamine phospholipid ratio to M01, Autopsy AD vs. Control, Female","[1]; serum, females, autopsy AD vs post mortem control",0.902
same,"Ethanolamine phospholipid ratio to M01, Mean, Cognitive Normal, Female","[1]; serum, females, cognitive normal",0.852
same,"Ethanolamine phospholipid ratio to M01, Mean, Post Mortem SDAT Female",[1]; [3],0.361
same,"Ethanolamine phospholipid ratio to M01, Mean, Post Mortem Ctl, Female",[1]; [4],0.400
same,"Ratio of ethanolamine phospholipid ratio to M01, ADAS 20-39 to 5-19, Male","[1]; serum, males, SDAT ADAS 20-39 vs ADAS 5-19",0.891
same,"Ratio of ethanolamine phospholipid ratio to M01, ADAS 40-70 to 5-19, Male","[1]; serum, males, SDAT ADAS 40-70 vs ADAS 5-19",0.792
same,"Ratio of ethanolamine phospholipid ratio to M01, ADAS 40-70 to 20-39, Male","[1]; serum, males, SDAT ADAS 40-70 vs ADAS 20-39",0.888
same,"Ethanolamine phospholipid ratio to M01, Mean, Age Ctl, 30-39, Male","[1]; serum, males, age control 30-39",0.863
same,"Ethanolamine phospholipid ratio to M01, Mean, Age Ctl, 40-49, Male","[1]; serum, males, age control 40-49",0.751
same,"Ethanolamine phospholipid ratio to M01, Mean, Age Ctl, 50-59, Male","[1]; serum, males, age control 50-59",0.864
same,"Ethanolamine phospholipid ratio to M01, Mean, Age Ctl, 60-69, Male","[1]; serum, males, age control 60-69",0.792
same,"Ethanolamine phospholipid ratio to M01, Mean, Age Ctl, 70+_Male","[1]; serum, males, age control 70+",0.848
same,"Ethanolamine phospholipid ratio to M01, Mean, Post Mortem SDAT Male","[1]; serum, males, post mortem SDAT",0.391
same,"Ratio of ethanolamine phospholipid ratio to M01, SDAT vs Control (post mortem, males)","[1]; serum, males, post mortem SDAT vs post mortem control",0.811
same,"Ethanolamine phospholipid ratio to M01, Mean, Post Mortem Ctl, Male","[1]; serum, males, post mortem control",0.482
same,Ratio of serum levels,"[2]; AD, All to CN, Male",0.769
same,Ratio of serum levels,"[2]; ADAS 5-19 to CN, Male",0.836
same,Ratio of serum levels,"[2]; ADAS 20-39 to 5-19, Male",0.880
same,Ratio of serum levels,"[2]; ADAS 20-39 to CN, Male",0.735
same,Ratio of serum levels,"[2]; ADAS 40-70 to 5-19, Male",0.784
same,Ratio of serum levels,"[2]; ADAS 40-70 to 20-39, Male",0.891
same,Ratio of serum levels,"[2]; ADAS 40-70 to CN, Male",0.655
same,"Serum level, Mean","[2]; Cognitive Normal, Female",0.099
same,"Average serum level, Mean","[2]; Cognitive Normal, Male",0.109
same,"Serum level, Mean","[2]; Post Mortem Ctl, Male",0.059
same,"Serum level, Mean",[2]; Post Mortem SDAT Male,0.036
same,Ratio of serum levels,"[2]; Post mortem SDAT vs Control, Male",0.610
same,"Serum level, Mean","[2]; SDAT, ADAS 5-19, Female",0.080
same,"Average serum level, Mean","[2]; SDAT, ADAS 5-19, Male",0.091
same,"Serum level, Mean","[2]; SDAT, ADAS 20-39, Female",0.076
same,"Average serum level, Mean","[2]; SDAT, ADAS 20-39, Male",0.080
same,"Serum level, Mean","[2]; SDAT, ADAS 40-70, Female",0.073
same,"Average serum level, Mean","[2]; SDAT, ADAS 40-70, Male",0.072
same,"Serum level, Mean","[2]; SDAT_all, Female",0.076
same,"Average serum level, Mean","[2]; SDAT_all, Male",0.084
same,"Ratio, ADAS 5-19 to CN, Female","[2]; serum level ratio, females, ADAS 5-19 vs CN",0.814
same,"Ratio, ADAS 20-39 to 5-19, Female","[2]; serum level ratio, females, ADAS 20-39 vs ADAS 5-19",0.951
same,"Ratio, ADAS 20-39 to CN, Female","[2]; serum level ratio, females, ADAS 20-39 vs CN",0.775
same,"Ratio, ADAS 40-70 to 5-19, Female","[2]; serum level ratio, females, ADAS 40-70 vs ADAS 5-19",0.906
same,"Ratio, ADAS 40-70 to 20-39, Female","[2]; serum level ratio, females, ADAS 40-70 vs ADAS 20-39",0.952
same,"Ratio, ADAS 40-70 to CN, Female","[2]; serum level ratio, females, ADAS 40-70 vs CN",0.737
same,"Ratio, 50-59 vs. 40-49, Female","[2]; serum level ratio, females, age 50-59 vs 40-49",0.927
same,"Ratio, 60-69 vs. 40-49, Female","[2]; serum level ratio, females, age 60-69 vs 40-49",0.906
same,"Ratio, 70+ vs. 40-49, Female","[2]; serum level ratio, females, age 70+ vs 40-49",0.989
same,"Ratio, AD, All to CN, Female","[2]; serum level ratio, females, all AD vs cognitively normal",0.772
same,"Ratio, Autopsy AD vs. Control, Female","[2]; serum level ratio, females, autopsy AD vs control",0.619
same,"Ratio, 50-59 vs. 40-49, Male","[2]; serum level ratio, males, age 50-59 vs 40-49",1.125
same,"Ratio, 60-69 vs. 40-49, Male","[2]; serum level ratio, males, age 60-69 vs 40-49",1.213
same,"Ratio, 70+ vs. 40-49, Male","[2]; serum level ratio, males, age 70+ vs 40-49",1.296
same,"Mean serum level, Age Ctl, 30-39, Female","[2]; serum, females, age 30-39",0.095
same,"Mean serum level, Age Ctl, 40-49, Female","[2]; serum, females, age 40-49",0.101
same,"Mean serum level, Age Ctl, 50-59, Female","[2]; serum, females, age 50-59",0.093
same,"Mean serum level, Age Ctl, 60-69, Female","[2]; serum, females, age 60-69",0.091
same,"Mean serum level, Age Ctl, 70+, Female","[2]; serum, females, age 70+",0.100
same,"Mean serum level, Post Mortem SDAT, Female",[2]; [3],0.043
same,"Mean serum level, Post Mortem Ctl, Female",[2]; [4],0.070
same,"Mean serum level, Age Ctl, 30-39, Male","[2]; serum, males, age 30-39",0.102
same,"Mean serum level, Age Ctl, 40-49, Male","[2]; serum, males, age 40-49",0.085
same,"Mean serum level, Age Ctl, 50-59, Male","[2]; serum, males, age 50-59",0.095
same,"Mean serum level, Age Ctl, 60-69, Male","[2]; serum, males, age 60-69",0.103
same,"Mean serum level, Age Ctl, 70+, Male","[2]; serum, males, age 70+",0.110
